Measured values from the supplement of paper PMC4604168 (melanoma cell lines).
The list shows a part of the results. Repeats are few or missing, and single values can be far off.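 The apoptosis fraction was the count of cleaved-PARP antibody-stained nuclei relative to all DNA-stained nuclei, imaged in 1,536-well plates. Screening doses were set so most cells survived, and baseline and induced cleaved-PARP levels vary greatly across cell lines.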

Experiments:
Assay in all cases: cleaved PARP positive nuclei fraction relative to DMSO control; melanoma cells; higher = more apoptosis
Details in all cases: library dose: low library concentration; 72 h
MZ2-MEL = system: MZ2-MEL
MeWo = system: MeWo
RPMI7951 = system: RPMI7951
RVH-421 = system: RVH-421
SkMel28 = system: SkMel28
SkMel2 = system: SkMel2
SkMel30 = system: SkMel30
SkMel5 = system: SkMel5
UACC257 = system: UACC257
UACC62 = system: UACC62
WM115 = system: WM115
WM1716 = system: WM1716
WM1745 = system: WM1745
WM3526 = system: WM3526
WM3619 = system: WM3619
WM451Lu = system: WM451Lu

| SMILES | cleaved PARP positive nuclei fraction (MZ2-MEL) | cleaved PARP positive nuclei fraction (MeWo) | cleaved PARP positive nuclei fraction (RPMI7951) | cleaved PARP positive nuclei fraction (RVH-421) | cleaved PARP positive nuclei fraction (SkMel28) | cleaved PARP positive nuclei fraction (SkMel2) | cleaved PARP positive nuclei fraction (SkMel30) | cleaved PARP positive nuclei fraction (SkMel5) | cleaved PARP positive nuclei fraction (UACC257) | cleaved PARP positive nuclei fraction (UACC62) | cleaved PARP positive nuclei fraction (WM115) | cleaved PARP positive nuclei fraction (WM1716) | cleaved PARP positive nuclei fraction (WM1745) | cleaved PARP positive nuclei fraction (WM3526) | cleaved PARP positive nuclei fraction (WM3619) | cleaved PARP positive nuclei fraction (WM451Lu) |
| --- | --- | --- | --- | --- | --- | --- | --- | --- | --- | --- | --- | --- | --- | --- | --- | --- |
| C[C@@H](Oc1cc(-c2cnn(C3CCNCC3)c2)cnc1N)c1c(Cl)ccc(F)c1Cl [Crizotinib] + NC(=O)Nc1cc(-c2cccc(F)c2)sc1C(=O)N[C@H]1CCCNC1 [AZD7762] (first compound 0.2 µM, partner dose 0.02 µM) | 74.6% | 103% | 50.6% | 86% | 127% | 177% | 107% | 89.8% | 54.5% | 91.3% | 117% | 81.6% | 83.7% | 63.8% | 170% | 58.1% |
| CCCS(=O)(=O)Nc1ccc(F)c(C(=O)c2c[nH]c3ncc(Cl)cc23)c1F + Cn1cncc1[C@@](N)(c1ccc(Cl)cc1)c1ccc2c(c1)c(-c1cccc(Cl)c1)cc(=O)n2C [tipifarnib] (first compound 0.08 µM, partner dose 0.01 µM) | 182% | 98.7% | 52.7% | 129% | 214% | 174% | 54.4% | 71.9% | 52.8% | 226% | 117% | 117% | 103% | 84.5% | 91.2% | 72.4% |
| Nc1ncn([C@H]2C[C@H](O)[C@@H](CO)O2)c(=O)n1 [decitabine] + O=C(O)c1ccc(-c2c[nH]c3ncc(-c4ccccc4)cc23)cc1C1CCCC1 [GSK650394] (first compound 0.1 µM, partner dose 0.16 µM) | 80.3% | 103% | 123% | 105% | 99.8% | 83.9% | 257% | 71.4% | 107% | 206% | 58.5% | 114% | 98.2% | 60.7% | 82.1% | 116% |
| Nc1ccn([C@@H]2O[C@H](CO)[C@@H](O)C2(F)F)c(=O)n1 [gemcitabine] + Cn1cncc1[C@@](N)(c1ccc(Cl)cc1)c1ccc2c(c1)c(-c1cccc(Cl)c1)cc(=O)n2C [tipifarnib] (first compound 0.0004 µM, partner dose 0.01 µM) | 97.2% | 52.6% | 99% | 90.3% | 212% | 191% | 57.7% | 174% | 92% | 57.6% | 182% | 45.3% | 119% | 71.5% | 404% | 118% |
| CS(=O)(=O)CCNCc1ccc(-c2ccc3ncnc(Nc4ccc(OCc5cccc(F)c5)c(Cl)c4)c3c2)o1 [lapatinib] + NC(=O)Nc1cc(-c2cccc(F)c2)sc1C(=O)N[C@H]1CCCNC1 [AZD7762] (first compound 0.8 µM, partner dose 0.02 µM) | 164% | 64.8% | 67.6% | 49.6% | 77.7% | 64.1% | 160% | 88.8% | 95% | 59.9% | 295% | 129% | 108% | 185% | 244% | 38.6% |
| CN1CCN(c2ccc3nc(-c4c(N)c5c(F)cccc5[nH]c4=O)[nH]c3c2)CC1 [Dovitinib] + c1cc(-c2cnn3cc(-c4ccc(OCCN5CCCCC5)cc4)cnc23)ccn1 [Dorsomorphin] (first compound 0.1 µM, partner dose 0.4 µM) | 105% | 42.7% | 137% | 161% | 98.3% | 37.9% | 56.7% | 229% | 96.9% | 52.2% | 153% | 91.1% | 103% | 88.6% | 82.4% | 83.7% |
| Cn1c(=O)n(-c2ccc(C(C)(C)C#N)cc2)c2c3cc(-c4cnc5ccccc5c4)ccc3ncc21 + O=C(Nc1ccccc1)c1cc([N+](=O)[O-])ccc1Cl [GW9662] (first compound 0.004 µM, partner dose 2 µM) | 97.8% | 22.8% | 55.1% | 85.4% | 170% | 73.1% | 25.4% | 195% | 313% | 120% | 39.7% | 56.9% | 86.2% | 47.3% | 111% | 66% |
| Nc1nc(F)nc2c1ncn2[C@@H]1O[C@H](CO)[C@@H](O)[C@@H]1O [fludarabine] + CO[C@@H]1[C@H](N(C)C(=O)c2ccccc2)C[C@H]2O[C@]1(C)n1c3ccccc3c3c4c(c5c6ccccc6n2c5c31)C(=O)NC4 [Midostaurin] (first compound 0.2 µM, partner dose 0.08 µM) | 64.7% | 816% | 221% | 98.4% | 57.8% | 598% | 5680% | 917% | 153% | 35.6% | 28.4% | 280% | 113% | 256% | 84.6% | 129% |
| CS(=O)(=O)CCNCc1ccc(-c2ccc3ncnc(Nc4ccc(OCc5cccc(F)c5)c(Cl)c4)c3c2)o1 [lapatinib] + COc1ccc(COc2ccc(Cc3cnc(N)nc3N)cc2OC)cc1 [GW2580] (first compound 0.8 µM, partner dose 1 µM) | 136% | 61% | 159% | 197% | 106% | 39.2% | 89.1% | 72.3% | 65.8% | 132% | 86.5% | 61% | 99.4% | 270% | 81.6% | 139% |
